Experimental data published in the supplement of paper PMC10849652.
The other results are listed elsewhere or left out.

Sequences of proteins named here, by UniProt entry; tags and fusion partners are left off. A change or cut given only in a name is not applied to a line headed by its entry.
UniProt P30419: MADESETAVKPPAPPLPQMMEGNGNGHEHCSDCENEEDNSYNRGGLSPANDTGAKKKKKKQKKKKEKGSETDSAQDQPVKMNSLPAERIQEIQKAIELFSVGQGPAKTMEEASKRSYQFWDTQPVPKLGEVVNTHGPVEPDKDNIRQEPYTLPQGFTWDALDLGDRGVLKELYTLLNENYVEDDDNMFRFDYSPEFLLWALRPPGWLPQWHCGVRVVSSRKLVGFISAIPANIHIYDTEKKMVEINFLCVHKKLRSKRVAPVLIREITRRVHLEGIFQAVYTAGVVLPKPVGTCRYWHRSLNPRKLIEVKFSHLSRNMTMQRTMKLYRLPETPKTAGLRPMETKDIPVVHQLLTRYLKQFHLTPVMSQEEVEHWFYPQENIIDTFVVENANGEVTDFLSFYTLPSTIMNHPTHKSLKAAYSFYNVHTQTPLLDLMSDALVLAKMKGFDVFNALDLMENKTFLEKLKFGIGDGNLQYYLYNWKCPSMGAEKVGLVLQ
UniProt Q9BQG2: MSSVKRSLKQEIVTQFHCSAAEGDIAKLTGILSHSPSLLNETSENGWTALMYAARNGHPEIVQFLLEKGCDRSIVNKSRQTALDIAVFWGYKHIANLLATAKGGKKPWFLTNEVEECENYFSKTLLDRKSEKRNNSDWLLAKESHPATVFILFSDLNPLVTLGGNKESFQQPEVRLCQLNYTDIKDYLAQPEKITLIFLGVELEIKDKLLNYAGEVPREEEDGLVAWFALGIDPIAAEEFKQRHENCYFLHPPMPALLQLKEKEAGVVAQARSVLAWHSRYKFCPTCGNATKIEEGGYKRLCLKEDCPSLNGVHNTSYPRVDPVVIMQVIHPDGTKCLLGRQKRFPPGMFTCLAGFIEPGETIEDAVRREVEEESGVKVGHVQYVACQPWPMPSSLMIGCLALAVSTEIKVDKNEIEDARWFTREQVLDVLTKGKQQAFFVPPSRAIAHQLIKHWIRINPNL
UniProt P22392, whole entry, looked up: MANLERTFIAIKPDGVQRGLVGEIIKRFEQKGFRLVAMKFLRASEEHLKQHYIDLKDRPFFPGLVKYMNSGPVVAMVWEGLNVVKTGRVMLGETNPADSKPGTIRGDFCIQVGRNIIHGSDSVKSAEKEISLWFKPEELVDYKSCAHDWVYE
UniProt P16083: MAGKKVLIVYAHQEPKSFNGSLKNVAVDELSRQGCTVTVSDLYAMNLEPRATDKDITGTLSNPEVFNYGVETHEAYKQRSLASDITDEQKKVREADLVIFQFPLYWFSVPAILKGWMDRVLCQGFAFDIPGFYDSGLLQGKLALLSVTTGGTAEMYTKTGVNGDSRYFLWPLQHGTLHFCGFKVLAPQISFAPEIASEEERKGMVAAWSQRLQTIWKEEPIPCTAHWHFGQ
UniProt Q9ULX3: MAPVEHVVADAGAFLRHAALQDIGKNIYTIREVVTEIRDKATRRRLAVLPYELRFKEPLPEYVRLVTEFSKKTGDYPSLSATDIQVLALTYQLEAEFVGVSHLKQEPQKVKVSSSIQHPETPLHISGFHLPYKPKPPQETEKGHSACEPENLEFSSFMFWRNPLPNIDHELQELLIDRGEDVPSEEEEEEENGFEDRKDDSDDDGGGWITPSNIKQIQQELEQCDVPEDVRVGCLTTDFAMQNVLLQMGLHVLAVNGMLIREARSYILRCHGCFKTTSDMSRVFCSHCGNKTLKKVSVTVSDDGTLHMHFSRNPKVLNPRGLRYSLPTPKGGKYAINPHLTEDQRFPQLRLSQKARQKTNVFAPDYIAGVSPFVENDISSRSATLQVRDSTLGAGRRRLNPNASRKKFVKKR
UniProt Q8WV22: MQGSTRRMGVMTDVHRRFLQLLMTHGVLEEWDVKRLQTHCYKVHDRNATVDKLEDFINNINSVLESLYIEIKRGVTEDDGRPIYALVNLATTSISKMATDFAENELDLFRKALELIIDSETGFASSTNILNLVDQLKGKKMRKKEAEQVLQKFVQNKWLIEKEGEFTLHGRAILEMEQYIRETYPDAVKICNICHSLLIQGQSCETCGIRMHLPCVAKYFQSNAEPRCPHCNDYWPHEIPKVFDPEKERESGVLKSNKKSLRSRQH
UniProt Q9Y3C1: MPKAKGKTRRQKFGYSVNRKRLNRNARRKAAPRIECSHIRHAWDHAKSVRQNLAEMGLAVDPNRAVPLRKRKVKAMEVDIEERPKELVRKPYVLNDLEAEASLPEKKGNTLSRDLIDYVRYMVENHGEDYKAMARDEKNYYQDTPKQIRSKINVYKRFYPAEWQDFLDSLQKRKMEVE
UniProt Q8IVI9: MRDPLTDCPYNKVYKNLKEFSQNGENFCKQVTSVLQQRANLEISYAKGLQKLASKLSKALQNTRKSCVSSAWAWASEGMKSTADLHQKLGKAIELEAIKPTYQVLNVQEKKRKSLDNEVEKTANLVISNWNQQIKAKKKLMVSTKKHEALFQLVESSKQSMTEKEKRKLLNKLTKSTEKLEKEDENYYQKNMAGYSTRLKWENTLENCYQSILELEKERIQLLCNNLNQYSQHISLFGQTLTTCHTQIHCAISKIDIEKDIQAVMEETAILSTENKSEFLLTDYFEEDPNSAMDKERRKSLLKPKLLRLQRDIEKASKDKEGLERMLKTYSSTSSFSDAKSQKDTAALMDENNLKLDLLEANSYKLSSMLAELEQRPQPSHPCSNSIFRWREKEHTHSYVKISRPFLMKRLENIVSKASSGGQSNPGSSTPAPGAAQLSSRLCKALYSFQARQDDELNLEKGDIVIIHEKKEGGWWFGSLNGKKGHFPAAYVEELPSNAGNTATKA
UniProt Q8WUM0: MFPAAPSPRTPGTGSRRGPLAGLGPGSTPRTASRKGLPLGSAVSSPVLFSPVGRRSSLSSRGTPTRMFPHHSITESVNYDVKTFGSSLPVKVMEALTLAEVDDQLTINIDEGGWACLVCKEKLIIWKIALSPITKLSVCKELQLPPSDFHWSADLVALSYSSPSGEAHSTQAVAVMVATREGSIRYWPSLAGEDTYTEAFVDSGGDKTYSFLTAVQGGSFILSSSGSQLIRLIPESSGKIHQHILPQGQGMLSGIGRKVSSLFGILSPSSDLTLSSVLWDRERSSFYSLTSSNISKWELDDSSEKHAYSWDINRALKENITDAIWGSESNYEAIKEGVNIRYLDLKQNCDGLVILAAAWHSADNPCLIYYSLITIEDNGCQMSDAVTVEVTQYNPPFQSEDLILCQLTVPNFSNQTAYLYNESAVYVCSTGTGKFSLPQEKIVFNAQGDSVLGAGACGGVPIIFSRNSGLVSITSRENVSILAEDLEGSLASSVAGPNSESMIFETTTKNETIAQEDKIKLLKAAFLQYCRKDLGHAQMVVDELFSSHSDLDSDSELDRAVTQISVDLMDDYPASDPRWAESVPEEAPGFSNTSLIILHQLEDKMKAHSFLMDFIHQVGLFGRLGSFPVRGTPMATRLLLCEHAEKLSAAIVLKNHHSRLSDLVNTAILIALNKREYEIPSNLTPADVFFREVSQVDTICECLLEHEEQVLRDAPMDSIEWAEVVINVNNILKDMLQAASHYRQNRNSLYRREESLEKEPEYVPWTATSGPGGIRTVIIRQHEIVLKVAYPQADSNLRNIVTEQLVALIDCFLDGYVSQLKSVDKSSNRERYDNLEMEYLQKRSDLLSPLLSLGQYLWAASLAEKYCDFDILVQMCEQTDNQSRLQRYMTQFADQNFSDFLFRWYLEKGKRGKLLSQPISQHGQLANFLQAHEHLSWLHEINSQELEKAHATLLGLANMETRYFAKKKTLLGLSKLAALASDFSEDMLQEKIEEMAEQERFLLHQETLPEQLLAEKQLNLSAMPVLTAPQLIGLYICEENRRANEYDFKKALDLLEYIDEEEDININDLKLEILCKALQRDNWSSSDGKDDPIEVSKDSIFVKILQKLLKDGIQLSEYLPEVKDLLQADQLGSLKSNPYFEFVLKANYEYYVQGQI
UniProt P55786: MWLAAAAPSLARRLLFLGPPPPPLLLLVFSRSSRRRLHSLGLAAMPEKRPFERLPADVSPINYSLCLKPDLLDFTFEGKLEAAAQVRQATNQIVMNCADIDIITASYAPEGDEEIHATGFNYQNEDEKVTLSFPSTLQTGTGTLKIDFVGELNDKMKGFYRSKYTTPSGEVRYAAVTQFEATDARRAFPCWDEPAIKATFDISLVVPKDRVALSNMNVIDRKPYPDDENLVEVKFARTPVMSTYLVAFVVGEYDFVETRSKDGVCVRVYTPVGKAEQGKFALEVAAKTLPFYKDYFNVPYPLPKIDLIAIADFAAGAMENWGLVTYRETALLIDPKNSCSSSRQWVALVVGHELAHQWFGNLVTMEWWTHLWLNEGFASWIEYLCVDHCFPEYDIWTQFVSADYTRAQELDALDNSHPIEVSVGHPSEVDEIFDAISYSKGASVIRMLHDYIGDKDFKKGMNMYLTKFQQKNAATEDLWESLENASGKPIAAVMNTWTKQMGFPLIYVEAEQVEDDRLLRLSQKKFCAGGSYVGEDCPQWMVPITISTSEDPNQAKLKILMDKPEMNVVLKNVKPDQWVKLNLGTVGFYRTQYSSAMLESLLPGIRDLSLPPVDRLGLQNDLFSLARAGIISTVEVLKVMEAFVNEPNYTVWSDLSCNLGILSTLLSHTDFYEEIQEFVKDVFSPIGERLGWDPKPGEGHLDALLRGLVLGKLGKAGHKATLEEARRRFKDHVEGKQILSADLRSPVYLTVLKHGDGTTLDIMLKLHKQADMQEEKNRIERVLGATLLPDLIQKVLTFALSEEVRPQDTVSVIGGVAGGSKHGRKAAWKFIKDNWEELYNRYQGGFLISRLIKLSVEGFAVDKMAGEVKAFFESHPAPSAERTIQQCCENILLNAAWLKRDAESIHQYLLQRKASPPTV
UniProt Q9NPE3: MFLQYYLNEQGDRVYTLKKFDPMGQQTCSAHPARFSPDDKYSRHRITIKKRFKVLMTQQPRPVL
UniProt Q9UHY1: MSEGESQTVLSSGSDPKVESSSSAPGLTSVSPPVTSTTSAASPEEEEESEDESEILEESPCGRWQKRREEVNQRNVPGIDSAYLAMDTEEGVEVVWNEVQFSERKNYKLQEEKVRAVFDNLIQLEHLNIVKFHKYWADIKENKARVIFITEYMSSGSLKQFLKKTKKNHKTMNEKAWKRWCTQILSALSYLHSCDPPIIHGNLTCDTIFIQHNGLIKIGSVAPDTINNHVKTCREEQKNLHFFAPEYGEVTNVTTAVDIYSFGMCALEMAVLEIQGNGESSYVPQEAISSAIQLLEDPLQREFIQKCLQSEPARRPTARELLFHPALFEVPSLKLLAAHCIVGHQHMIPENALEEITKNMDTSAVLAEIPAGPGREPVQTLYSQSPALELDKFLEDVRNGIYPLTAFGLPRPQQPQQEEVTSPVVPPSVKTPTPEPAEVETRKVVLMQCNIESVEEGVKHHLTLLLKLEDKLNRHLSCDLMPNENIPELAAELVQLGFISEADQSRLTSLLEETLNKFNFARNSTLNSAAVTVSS
UniProt Q9HAN9, whole entry, looked up: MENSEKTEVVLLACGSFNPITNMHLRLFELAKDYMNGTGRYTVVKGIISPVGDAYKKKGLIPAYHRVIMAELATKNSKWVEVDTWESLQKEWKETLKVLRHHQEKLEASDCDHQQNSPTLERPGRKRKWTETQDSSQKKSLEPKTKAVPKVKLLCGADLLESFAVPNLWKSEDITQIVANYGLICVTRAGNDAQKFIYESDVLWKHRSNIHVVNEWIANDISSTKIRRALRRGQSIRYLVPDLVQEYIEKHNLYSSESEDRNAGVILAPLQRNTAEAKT

What was measured:
Assay in all cases: log2 fold change, soluble protein after heating vs DMSO (PISA); higher = thermal stabilisation; K562 lysate, 10 uM; active = over 0.2 and 3.5 SD of the protein, either way, in both replicates (recomputed)
[1] = compound: C#Cc1cccc(Nc2ncnc3cc(OCCOC)c(OCCOC)cc23)c1 [erlotinib]
In short: (§1)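 The values are log-two fold changes in thermal stability compared with solvent controls and come from duplicates. They were obtained by TMTpro 16plex LC-MS/MS, with channel sums equalised, on the supernatant after 21,000xg for 90 min. That supernatant came from crude K562 extract at 1 mg/mL protein treated with 10 μM compound for 30 min, heated for 3 min across 48°C-58°C, pooled and brought to 0.5% NP-40 at 4°C.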

[2] = compound: C/C(=N\NC(=O)C1=CC(=CC=C1)S(=O)(=O)N2CCOCC2)/C3=C(C=CC(=C3)Cl)O
In short: as §1

[3] = compound: C1=CC(=CC=C1C2=NC3=C(N2)C=C(C=C3)C(=O)N)OC4=CC=C(C=C4)Cl
In short: as §1

[4] = compound: C1=CC2=C(C=CC(=C2)/C=C\3/C(=O)NC(=NCC4=CC=CS4)S3)N=C1
In short: as §1

[5] = compound: C1=CC2=NC=CN=C2C=C1/C=C/3\C(=O)NC(=O)S3
In short: as §1

[6] = compound: C1=CC=C(C=C1)C2=NC(=C(N2)C3=CC=NC=C3)C4=CC(=C(C=C4)Cl)O
In short: as §1

[7] = compound: C1=CC=C2C(=C1)C3=NNC4=CC=CC(=C43)C2=O
In short: as §1

[8] = compound: C1CCN(C1)C(=O)NC2=CC=CC(=C2)NC3=NC=C(C(=N3)NCCC4=CN=CN4)Br
In short: as §1

[9] = compound: C1CN(CCC1(CC2=CC=C(C=C2)Cl)N)C3=NC=NC4=C3C=CN4
In short: as §1

[10] = compound: C1COCCN1CCN2C3=CC=CC=C3N=C2NC(=O)C4=CC(=CC=C4)[N+](=O)[O-] [IRAK-1-4 Inhibitor I]
In short: as §1

[11] = compound: C=CC(=O)N1CCC[C@@H](n2nc(-c3ccc(Oc4ccccc4)cc3)c3c(N)ncnc32)C1 [ibrutinib]
In short: as §1

[12] = compound: CC(=O)c1cnc2ccc(-c3cc(Cl)c(O)c(Cl)c3)nc2c1N[C@H]1CC[C@H](CN(C)C)CC1
In short: as §1

[13] = compound: CC(C)(C)Cn1c(N)nc2ccc(-c3[nH]c(C(C)(C)C)nc3-c3ccc(F)cc3)nc21 [ralimetinib]
In short: as §1

[14] = compound: CC(C)(O)CC(=O)NCCn1ccc2ncnc(Nc3ccc(Oc4cccc(C(F)(F)F)c4)c(Cl)c3)c21
In short: as §1

[15] = compound: CC(C)C1=C2N=C(C=C(N2N=C1)NCC3=CC=CC=C3)NCCCCCCN
In short: as §1

[16] = compound: CC1=C(C(CC(=O)N1)C2=CC=C(C=C2)C(F)(F)F)C(=O)NC3=C(C=C4C(=C3)C=NN4)F
In short: as §1

[17] = compound: CC1=C(C2=C(C=C1)C(=O)C3=CC=CC=C3N2CCCN)C
In short: as §1

[18] = compound: CC1=C(C=C(C=C1)NC(=O)C2=CC(=CC=C2)C(C)(C)C#N)NC3=CC4=C(C=C3)N=CN(C4=O)C
In short: as §1

[19] = compound: CC1=C(C=C(C=C1)NC(=O)C2=CC(=CC=C2)N(C)C)NC(=O)C3=CC=C(C=C3)O
In short: as §1

[20] = compound: CC1=CC=C(C=C1)SC2=C3C=C(SC3=CN=C2)C(=O)N
In short: as §1

Measured: log2 fold change

NMT1 (UniProt P30419)
inactive: [1] -0.027 | [2] -0.147 | [3] 0.15 | [4] 0.019 | [5] -0.021 | [6] -0.024 | [7] 0.062 | [8] -0.012 | [9] -0.165 | [10] -0.027 | [11] -0.045 | [12] 0.005 | [13] -0.001 | [14] 0.014 | [15] 0.022 | [16] -0.011 | [17] -0.009 | [18] -0.01 | [19] 0.017 | [20] 0.001

NUDT12 (UniProt Q9BQG2)
inactive: [1] 0.021 | [2] 0.054 | [3] 0.024 | [4] -0.003 | [5] 0.041 | [6] 0.015 | [7] 0.078 | [8] -0.024 | [9] 0.024 | [10] 0.022 | [11] -0.004 | [12] 0.025 | [13] -0.021 | [14] -0.035 | [15] -0.077 | [16] -0.035 | [17] 0.06 | [18] 0.047 | [19] -0.003 | [20] -0.029

NRBF2 (UniProt Q96F24)
inactive: [1] 0.038 | [2] -0.073 | [3] -0.033 | [4] -0.016 | [5] -0.025 | [6] 0.024 | [7] 0.057 | [8] 0.049 | [9] -0.014 | [10] -0.065 | [11] -0.013 | [12] 0.011 | [13] 0.005 | [14] 0.027 | [15] 0.026 | [16] -0.001 | [17] -0.031 | [18] 0.005 | [19] -0.024 | [20] 0.006

NME2 isoform 2 (UniProt P22392)
inactive: [1] -0.016 | [2] 0.01 | [3] 0.027 | [4] -0.009 | [5] -0.005 | [6] 0.004 | [7] 0.034 | [8] 0.004 | [9] -0.011 | [10] 0.019 | [11] 0.012 | [12] -0.005 | [13] 0.001 | [14] -0.014 | [15] 0.015 | [16] -0.016 | [17] -0.002 | [18] 0.018 | [19] 0.005 | [20] -0.011

Two entries picked at random from those above, as already listed:
NMT1 (UniProt P30419)
inactive: [1] -0.027 | [2] -0.147 | [3] 0.15 | [4] 0.019 | [5] -0.021 | [6] -0.024 | [7] 0.062 | [8] -0.012 | [9] -0.165 | [10] -0.027 | [11] -0.045 | [12] 0.005 | [13] -0.001 | [14] 0.014 | [15] 0.022 | [16] -0.011 | [17] -0.009 | [18] -0.01 | [19] 0.017 | [20] 0.001

NRBF2 (UniProt Q96F24)
inactive: [1] 0.038 | [2] -0.073 | [3] -0.033 | [4] -0.016 | [5] -0.025 | [6] 0.024 | [7] 0.057 | [8] 0.049 | [9] -0.014 | [10] -0.065 | [11] -0.013 | [12] 0.011 | [13] 0.005 | [14] 0.027 | [15] 0.026 | [16] -0.001 | [17] -0.031 | [18] 0.005 | [19] -0.024 | [20] 0.006

Continuation.

NQO2 (UniProt P16083)
inactive: [1] -0.013 | [2] -0.004 | [3] 0 | [4] 0.002 | [5] -0.04 | [6] -0.015 | [7] 0.026 | [8] -0.003 | [9] 0.013 | [10] 0.032 | [11] 0.042 | [12] 0.009 | [13] 0.005 | [14] -0.018 | [15] 0.024 | [16] 0.006 | [17] -0.003 | [18] -0.027 | [19] -0.035 | [20] -0.012

NOB1 (UniProt Q9ULX3)
inactive: [1] 0.011 | [2] -0.028 | [3] 0.012 | [4] -0.016 | [5] -0.02 | [6] 0.023 | [7] -0.016 | [8] -0.016 | [9] -0.027 | [10] 0.011 | [11] -0.005 | [12] 0.018 | [13] -0.028 | [14] 0.014 | [15] 0.013 | [16] -0.001 | [17] -0.046 | [18] 0.03 | [19] 0.019 | [20] 0.004

NSMCE1 (UniProt Q8WV22)
inactive: [1] -0.02 | [2] 0.029 | [3] 0.021 | [4] -0.048 | [5] -0.005 | [6] 0.073 | [7] -0.008 | [8] -0.006 | [9] -0.065 | [10] 0.006 | [11] 0.098 | [12] 0.022 | [13] -0.031 | [14] 0.003 | [15] -0.001 | [16] -0.011 | [17] 0.016 | [18] 0.027 | [19] 0.018 | [20] -0.02

NUDT1 (UniProt P36639)
inactive: [1] 0.019 | [2] -0.028 | [3] 0.026 | [4] 0.005 | [5] -0.051 | [6] -0.014 | [7] 0.015 | [8] -0.009 | [9] 0.031 | [10] 0.005 | [11] 0.083 | [12] 0.003 | [13] 0.158 | [14] -0.091 | [15] -0.009 | [16] -0.015 | [17] 0.008 | [18] 0.008 | [19] -0.009 | [20] -0.054

NOP16 (UniProt Q9Y3C1)
inactive: [1] 0.035 | [2] 0.009 | [3] 0.038 | [4] -0.025 | [5] -0.012 | [6] 0.005 | [7] 0.037 | [8] 0.023 | [9] -0.018 | [10] -0.002 | [11] -0.007 | [12] -0.015 | [13] 0.003 | [14] 0.002 | [15] -0.027 | [16] 0.011 | [17] 0.04 | [18] -0.036 | [19] -0.023 | [20] 0.014

NOSTRIN (UniProt Q8IVI9)
inactive: [1] -0.031 | [2] 0.032 | [3] 0.132 | [4] 0.072 | [5] -0.008 | [6] -0.013 | [7] 0.07 | [8] -0.055 | [9] -0.065 | [10] 0.001 | [11] 0.025 | [12] -0.009 | [13] 0.012 | [14] -0.041 | [15] -0.125 | [16] -0.032 | [17] -0.039 | [18] -0.019 | [19] 0.088 | [20] 0.012

NUP133 (UniProt Q8WUM0)
inactive: [1] 0.01 | [2] -0.016 | [3] 0.006 | [4] 0.019 | [5] -0.018 | [6] 0.017 | [7] -0.023 | [8] -0.04 | [9] 0.015 | [10] 0.026 | [11] 0.016 | [12] -0.015 | [13] 0.006 | [14] 0.045 | [15] -0.01 | [16] 0.064 | [17] -0.02 | [18] 0.01 | [19] 0.009 | [20] -0.002

NOP53 (UniProt Q9NZM5)
inactive: [1] -0.059 | [2] -0.022 | [3] -0.021 | [4] 0.115 | [5] -0.001 | [6] 0.002 | [7] -0.081 | [8] -0.035 | [9] -0.001 | [10] 0.017 | [11] -0.129 | [12] -0.033 | [13] -0.008 | [14] 0.043 | [15] 0.012 | [16] -0.209 | [17] -0.049 | [18] -0.03 | [19] -0.013 | [20] 0.01

NPEPPS (UniProt P55786)
inactive: [1] 0.002 | [2] -0.008 | [3] 0.01 | [4] -0.003 | [5] -0.006 | [6] 0.009 | [7] 0.016 | [8] 0.007 | [9] 0.006 | [10] 0.023 | [11] 0.007 | [12] -0.01 | [13] -0.006 | [14] -0.003 | [15] -0.002 | [16] -0.003 | [17] 0.004 | [18] 0.007 | [19] 0.01 | [20] -0.005

NOP10 (UniProt Q9NPE3)
inactive: [1] 0.107 | [2] -0.01 | [3] -0.038 | [4] -0.095 | [5] 0.099 | [6] 0.008 | [7] -0.225 | [8] 0.083 | [9] 0.032 | [10] -0.035 | [11] 0 | [12] 0.036 | [13] 0.021 | [14] -0.032 | [15] -0.165 | [16] 0.027 | [17] -0.018 | [18] -0.047 | [19] -0.043 | [20] -0.007

NRBP1 (UniProt Q9UHY1)
inactive: [1] -0.012 | [2] -0.011 | [3] 0.006 | [4] 0.001 | [5] -0.018 | [6] 0.007 | [7] -0.05 | [8] -0.007 | [9] 0.017 | [10] 0.001 | [11] 0.007 | [12] -0.003 | [13] -0.008 | [14] 0 | [15] -0.005 | [16] -0.033 | [17] -0.011 | [18] 0.007 | [19] 0.008 | [20] -0.01

NMNAT1 (UniProt Q9HAN9)
inactive: [1] -0.028 | [2] 0.037 | [3] 0.042 | [4] 0.026 | [5] -0.008 | [6] 0.028 | [7] -0.012 | [8] 0.041 | [9] -0.09 | [10] -0.017 | [11] -0.024 | [12] -0.025 | [13] 0.041 | [14] -0.031 | [15] -0.098 | [16] -0.012 | [17] -0.029 | [18] 0.017 | [19] 0.023 | [20] -0.012
